Assay results as given in patent publication US8541395B2 (priority 2009, dated 2013).

Amino acid sequences for entries named in this document (tags omitted).
UniProt Q13936, whole entry: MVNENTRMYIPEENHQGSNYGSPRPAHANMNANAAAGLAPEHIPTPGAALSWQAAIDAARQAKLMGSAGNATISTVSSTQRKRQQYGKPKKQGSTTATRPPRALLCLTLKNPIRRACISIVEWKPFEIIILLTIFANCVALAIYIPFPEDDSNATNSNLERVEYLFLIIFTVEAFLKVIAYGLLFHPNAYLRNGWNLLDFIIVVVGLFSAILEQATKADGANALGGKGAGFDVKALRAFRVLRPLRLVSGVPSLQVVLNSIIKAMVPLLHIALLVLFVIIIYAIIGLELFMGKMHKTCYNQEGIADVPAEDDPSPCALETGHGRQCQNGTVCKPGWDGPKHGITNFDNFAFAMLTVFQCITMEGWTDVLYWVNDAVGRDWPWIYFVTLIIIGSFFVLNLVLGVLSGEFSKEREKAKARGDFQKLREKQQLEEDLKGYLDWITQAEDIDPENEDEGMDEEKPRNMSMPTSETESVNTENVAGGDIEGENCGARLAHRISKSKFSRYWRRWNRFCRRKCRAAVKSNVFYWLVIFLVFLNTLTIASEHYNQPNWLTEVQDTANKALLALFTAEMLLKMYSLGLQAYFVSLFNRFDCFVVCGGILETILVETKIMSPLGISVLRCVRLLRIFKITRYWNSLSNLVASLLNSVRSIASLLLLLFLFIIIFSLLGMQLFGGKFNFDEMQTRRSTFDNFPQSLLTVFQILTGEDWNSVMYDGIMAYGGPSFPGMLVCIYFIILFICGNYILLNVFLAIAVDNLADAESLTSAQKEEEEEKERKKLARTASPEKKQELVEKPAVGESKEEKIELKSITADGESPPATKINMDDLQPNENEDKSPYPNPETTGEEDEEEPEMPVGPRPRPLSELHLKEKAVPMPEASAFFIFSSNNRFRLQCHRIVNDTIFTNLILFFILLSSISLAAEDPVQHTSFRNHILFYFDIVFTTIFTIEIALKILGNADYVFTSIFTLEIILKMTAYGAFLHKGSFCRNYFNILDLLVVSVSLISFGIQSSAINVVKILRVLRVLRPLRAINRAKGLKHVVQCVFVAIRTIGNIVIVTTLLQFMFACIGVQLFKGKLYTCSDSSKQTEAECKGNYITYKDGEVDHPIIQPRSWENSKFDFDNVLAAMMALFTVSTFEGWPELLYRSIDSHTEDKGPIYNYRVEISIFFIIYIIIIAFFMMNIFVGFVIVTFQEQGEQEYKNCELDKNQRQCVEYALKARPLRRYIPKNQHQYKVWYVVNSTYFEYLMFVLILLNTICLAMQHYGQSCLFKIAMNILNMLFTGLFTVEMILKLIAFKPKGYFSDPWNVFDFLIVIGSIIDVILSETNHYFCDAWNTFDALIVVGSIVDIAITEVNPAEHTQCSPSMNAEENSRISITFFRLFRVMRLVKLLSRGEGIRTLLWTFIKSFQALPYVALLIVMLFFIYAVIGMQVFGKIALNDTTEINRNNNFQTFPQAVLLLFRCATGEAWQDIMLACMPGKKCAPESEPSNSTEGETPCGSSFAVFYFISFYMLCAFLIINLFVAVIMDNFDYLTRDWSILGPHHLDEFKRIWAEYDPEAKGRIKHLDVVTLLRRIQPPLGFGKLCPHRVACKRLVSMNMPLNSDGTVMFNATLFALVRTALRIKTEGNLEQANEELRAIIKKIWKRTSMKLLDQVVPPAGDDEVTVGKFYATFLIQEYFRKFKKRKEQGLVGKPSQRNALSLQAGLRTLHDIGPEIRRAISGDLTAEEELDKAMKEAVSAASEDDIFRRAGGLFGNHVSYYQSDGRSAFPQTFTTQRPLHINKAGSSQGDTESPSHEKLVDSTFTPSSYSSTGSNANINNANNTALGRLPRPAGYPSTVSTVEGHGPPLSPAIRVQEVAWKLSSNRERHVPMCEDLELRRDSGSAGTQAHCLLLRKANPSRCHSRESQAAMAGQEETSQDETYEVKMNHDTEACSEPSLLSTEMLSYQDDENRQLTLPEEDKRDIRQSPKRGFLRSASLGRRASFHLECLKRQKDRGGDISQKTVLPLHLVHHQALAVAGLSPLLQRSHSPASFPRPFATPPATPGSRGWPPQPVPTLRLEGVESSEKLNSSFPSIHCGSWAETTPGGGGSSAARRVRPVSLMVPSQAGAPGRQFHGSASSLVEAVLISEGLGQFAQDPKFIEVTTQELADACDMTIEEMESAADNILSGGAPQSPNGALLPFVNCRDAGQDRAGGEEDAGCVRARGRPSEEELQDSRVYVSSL

Molecular target: Cav1.2 (Homo sapiens, UniProt Q13936)
Test: in vitro

COC(=O)C1=C(C)NC(C)=C(C(=O)OC)C1c1ccccc1[N+](=O)[O-] [Nifedipine]
inhibition at 5 min, 1 µM: 93.6%
